What follows is the remainder of the data, with few or none of the highest values.
Tested on: HEK293T (UBE3A T485A transfected, BAR Wnt reporter)
Assay: Renilla luciferase signal (cell health) relative to plate median (fold (linear ratio)); higher = higher Renilla signal
Conditions: 24 h
In short: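 Chemicals were robotically dosed at 0.01–100 uM for 24 h onto HEK293T cells, starting four hours after transfection with a BAR firefly luciferase Wnt reporter, TK-Renilla and an expression plasmid. The cells had been plated at 4500 cells/well in DMEM with 10% FBS at 37°C and 5% CO2. Following a Dual-Glo luciferase readout, the firefly/Renilla ratio served as the Wnt activity measure and raw Renilla as the cell health measure, both median-centred on each plate. Each value is the mean of four biological replicates.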

SMILES | Renilla luciferase signal (concentration: 0.1 uM) | Renilla luciferase signal (concentration: 1 uM) | Renilla luciferase signal (concentration: 10 uM) | Renilla luciferase signal (concentration: 100 uM)
Oc1c(Cl)cc(Cl)cc1Cl [2,4,6-Trichlorophenol] | 0.574 | 0.674 | 0.478 | 0.556
CC(C)(C)c1ccc(O)cc1 [4-tert-Butylphenol] | 0.859 | 0.754 | 0.853 | 0.79
Cc1ccc(O)cc1C [3,4-Dimethylphenol] | 1.18 | 1.32 | 1.41 | 1.22
